PubChem BioAssay AID1159579, Peter MacCallum Cancer Centre – 2015

Purpose: 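Find genes whose silencing alters migration of lymphatic endothelial cells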 (follow-up of hits)
Cell system: human dermal lymphatic endothelial cells
Reagents: single siRNA against human genes, 25 nM
Measurement: 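Scratch wound imaging measuring area filled by moving cells plus nuclei number, averaged over two wells and scaled to mock-transfected controls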
Scale: migration relative to mock: higher = more migration into the scratch; mean nuclei count: higher = more cells remaining
Call rule: 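Called active when the migration ratio is 0.6 or lower (impaired) or 1.3 or higher (accelerated), but inactive whenever the mean nuclei count falls under 3300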
Meaning of the calls: active = migration changed (impaired or accelerated); inactive = no migration change, or too few cells
Shown is one part, drawn at random, of about 2,000 deposited reagents. 549 of all reagents (27%) were called active. 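Some migration ratios are negative; siRNAs with too few cells are inactive whatever their migration ratio.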 The numbers tell different reagents against one gene apart. Not stated in the record: the time to read-out.

DOK4 #1 showed migration relative to mock 0.88; migration and cell number class no change in migration or cell number; mean nuclei count 5730; inactive.
For DOK4 #2, the values are migration relative to mock 0.9; migration and cell number class no change in migration or cell number; mean nuclei count 6088; inactive.
DOK4 #3 scored migration relative to mock 1; migration and cell number class no change in migration or cell number; mean nuclei count 5888; inactive.
Depletion of DOK4 #4 came out at: migration relative to mock 0.78; migration and cell number class no change in migration or cell number; mean nuclei count 4374; inactive.
Knock-down of BNIP1 #1 gave: migration relative to mock 0.9; migration and cell number class no change in migration or cell number; mean nuclei count 5433; inactive.
For BNIP1 #2, the entry reads migration relative to mock 0.43; migration and cell number class migration reduced; mean nuclei count 3362; active.
BNIP1 #3 showed migration relative to mock 0.3; migration and cell number class migration reduced; mean nuclei count 3622; active.
For BNIP1 #4, the values are migration relative to mock 1.01; migration and cell number class no change in migration or cell number; mean nuclei count 5794; inactive.
CEACAM5 #1 gave migration relative to mock 0.74; migration and cell number class no change in migration or cell number; mean nuclei count 6639; inactive.
For CEACAM5 #2, the entry reads migration relative to mock 0.71; migration and cell number class no change in migration or cell number; mean nuclei count 4580; inactive.
CEACAM5 #3 gave migration relative to mock 1.21; migration and cell number class no change in migration or cell number; mean nuclei count 5838; inactive.
Against CEACAM5 #4, the values are migration relative to mock 0.94; migration and cell number class no change in migration or cell number; mean nuclei count 4324; inactive.
For HS3ST1 #1, the entry reads migration relative to mock 1.08; migration and cell number class no change in migration or cell number; mean nuclei count 6084; inactive.
Silencing of HS3ST1 #2 gave: migration relative to mock 0.4; migration and cell number class migration reduced; mean nuclei count 5684; active.
Against HS3ST1 #3, the entry reads migration relative to mock 0.14; migration and cell number class migration reduced; mean nuclei count 4227; active.
Knock-down of HS3ST1 #4 resulted in: migration relative to mock 0.7; migration and cell number class no change in migration or cell number; mean nuclei count 6080; inactive.
After knock-down of NDUFA7 #1, the record shows migration relative to mock 0.38; migration and cell number class migration reduced; mean nuclei count 6670; active.
NDUFA7 #2 gave migration relative to mock 0.66; migration and cell number class no change in migration or cell number; mean nuclei count 5588; inactive.
Depletion of NDUFA7 #3 gave: migration relative to mock 0.41; migration and cell number class migration reduced; mean nuclei count 6146; active.
After knock-down of NDUFA7 #4, the screen gave migration relative to mock 1.06; migration and cell number class no change in migration or cell number; mean nuclei count 5920; inactive.
After knock-down of ZNF559 #1 the results were migration relative to mock 0.87; migration and cell number class no change in migration or cell number; mean nuclei count 5542; inactive.
After knock-down of ZNF559 #2, the screen gave migration relative to mock 1.05; migration and cell number class no change in migration or cell number; mean nuclei count 6426; inactive.
For ZNF559 #3, the entry reads migration relative to mock 0.83; migration and cell number class no change in migration or cell number; mean nuclei count 5659; inactive.
ZNF559 #4 scored migration relative to mock 0.7; migration and cell number class no change in migration or cell number; mean nuclei count 4622; inactive.
LYVE1 #1 showed migration relative to mock 1.18; migration and cell number class no change in migration or cell number; mean nuclei count 6862; inactive.
After knock-down of LYVE1 #2, the record shows migration relative to mock 0.72; migration and cell number class no change in migration or cell number; mean nuclei count 6959; inactive.
Against LYVE1 #3, the entry reads migration relative to mock 0.25; migration and cell number class migration reduced; mean nuclei count 3936; active.
Depletion of LYVE1 #4 came out at: migration relative to mock 0.82; migration and cell number class no change in migration or cell number; mean nuclei count 5612; inactive.
Silencing of DCTN6 #1 came out at: migration relative to mock 0.28; migration and cell number class migration reduced; mean nuclei count 5172; active.
DCTN6 #2 gave migration relative to mock 1.08; migration and cell number class no change in migration or cell number; mean nuclei count 4808; inactive.
For DCTN6 #3, the values are migration relative to mock 0.81; migration and cell number class no change in migration or cell number; mean nuclei count 4968; inactive.
Against DCTN6 #4 the deposit lists migration relative to mock 0.86; migration and cell number class no change in migration or cell number; mean nuclei count 5041; inactive.
Knock-down of NUDT2 #1 came out at: migration relative to mock 0.52; migration and cell number class migration reduced; mean nuclei count 5379; active.
NUDT2 #2 showed migration relative to mock 0.84; migration and cell number class no change in migration or cell number; mean nuclei count 5538; inactive.
NUDT2 #3 showed migration relative to mock 0.64; migration and cell number class no change in migration or cell number; mean nuclei count 5039; inactive.
Silencing of NUDT2 #4 resulted in: migration relative to mock 0.57; migration and cell number class migration reduced; mean nuclei count 5076; active.
